Source: PubChem BioAssay AID1259405 (NCATS, 2018)
In all, the deposit lists about 50,000 reagents; this is a part drawn at random. About 4,000 of all reagents (8%) were called active. 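Mouse siRNA library applied to hamster cells; one well for each siRNA.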 Reagents against one gene are numbered here.

- Purpose: 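Silenced genes that increase secreted GFP made by CHO cells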 (primary screen)
- Cells: Chinese hamster CHO-K1 ovary cells with stable secreted eGFP expression
- Knock-down reagent: single siRNA against mouse genes, 0.8 pmol siRNA per well (2 µl of 400 nM stock)
- Timing: 3 days
- Detection: 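Percent of the per-plate non-targeting control median for intracellular GFP per well by laser scanning cytometry and for cell viability by ATP luminescence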
- Scale: GFP, % of control: higher = more GFP per well, higher productivity; viability (ATP), % of control: higher = more viable cells (more ATP)
- Rule for the call: 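Called active when intracellular GFP, relative to negative control, is at or above 120%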

Tnfsf14 #1
- GFP, % of control: 75.2
- viability (ATP), % of control: 50.3
- Call: inactive

Tnfsf14 #2
- GFP, % of control: 46.5
- viability (ATP), % of control: 35.6
- Call: inactive

Tnfsf14 #3
- GFP, % of control: 66.7
- viability (ATP), % of control: 69.6
- Call: inactive

Nags #1
- GFP, % of control: 117
- viability (ATP), % of control: 102
- Call: inactive

Nags #2
- GFP, % of control: 175
- viability (ATP), % of control: 83.7
- Call: active

Nags #3
- GFP, % of control: 0.205
- viability (ATP), % of control: 95.1
- Call: inactive

Nags #4
- GFP, % of control: 132
- viability (ATP), % of control: 72.8
- Call: active

Nags #5
- GFP, % of control: 96.6
- viability (ATP), % of control: 84.8
- Call: inactive

Nags #6
- GFP, % of control: 175
- viability (ATP), % of control: 83.7
- Call: active

R3hdm2 #1
- GFP, % of control: 106
- viability (ATP), % of control: 85.2
- Call: inactive

R3hdm2 #2
- GFP, % of control: 110
- viability (ATP), % of control: 69.1
- Call: inactive

R3hdm2 #3
- GFP, % of control: 118
- viability (ATP), % of control: 92.9
- Call: inactive

B230340J04Rik #1
- GFP, % of control: 91.4
- viability (ATP), % of control: 60.4
- Call: inactive

B230340J04Rik #2
- GFP, % of control: 75
- viability (ATP), % of control: 83.4
- Call: inactive

B230340J04Rik #3
- GFP, % of control: 86.8
- viability (ATP), % of control: 85.7
- Call: inactive

Pold1 #1
- GFP, % of control: 47.1
- viability (ATP), % of control: 78.2
- Call: inactive

Pold1 #2
- GFP, % of control: 42.5
- viability (ATP), % of control: 55.8
- Call: inactive

Pold1 #3
- GFP, % of control: 92.7
- viability (ATP), % of control: 79.6
- Call: inactive

Traf3ip3 #1
- GFP, % of control: 110
- viability (ATP), % of control: 92.8
- Call: inactive

Traf3ip3 #2
- GFP, % of control: 82.1
- viability (ATP), % of control: 86.6
- Call: inactive

Musk
- GFP, % of control: 110
- viability (ATP), % of control: 89.1
- Call: inactive

Or7a40 #1
- GFP, % of control: 66.6
- viability (ATP), % of control: 63.3
- Call: inactive

Or7a40 #2
- GFP, % of control: 54.1
- viability (ATP), % of control: 80.4
- Call: inactive

Or7a40 #3
- GFP, % of control: 77.4
- viability (ATP), % of control: 96.5
- Call: inactive

Wnt8a #1
- GFP, % of control: 65
- viability (ATP), % of control: 69.5
- Call: inactive

Wnt8a #2
- GFP, % of control: 72.3
- viability (ATP), % of control: 67.9
- Call: inactive

Wnt8a #3
- GFP, % of control: 69.6
- viability (ATP), % of control: 77.2
- Call: inactive
